Earlier results as cited in patent US7528175B2, “Method of treating airway diseases with beta-adrenergic inverse agonists” (Inverseon, Inc., priority 2005, dated 2009).

Conditions: cited from earlier work

Row | SMILES | time of peak plasma concentrations (after oral intake) [h] | systemic absorption (after inhalation)
1 | CC(C)[N+]1(C)[C@@H]2CC[C@H]1C[C@@H](OC(=O)C(CO)c1ccccc1)C2 (some centres unmarked) [Ipratropium bromide] | 3 | 
2 | CN1[C@@H]2CC[C@H]1C[C@@H](OC(=O)C(CO)c1ccccc1)C2 (some centres unmarked) [atropine] |  | nearly complete
